Where a protein sequence is shown, tags need not be part of it.
Test system: T1, His6-WblI (Streptomyces lividans TK24)
T1 sequence (looked up): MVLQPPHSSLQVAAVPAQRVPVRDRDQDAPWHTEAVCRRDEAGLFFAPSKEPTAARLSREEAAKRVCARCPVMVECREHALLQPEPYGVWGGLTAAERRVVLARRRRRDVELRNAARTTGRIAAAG
Assay: EMSA
Details: 10 mM Tris-HCl pH 7.5, 50 mM KCl, 1 mM DTT, 20 µl, room temperature 15 min, 50 pmol probe, 5% native PAGE in 45 mM Tris-HCl pH 8.3, 45 mM boric acid, recombinant protein, residues 1-126, label: 5' FITC (Plabel primer S17), probe letters rebuilt from the primers and the genome

Binding result, binds:
AGCCAGTGGCGATAAGCGAGTACCAGCAGGTCGTCATCAAGGCGTTCTCCGTCTTCGGCAGCGTCGAGGTGCGCGTCCCGGAGAACGTGTCGGTGCGCGGCGCCGGCGGCAGCGTGCTCGGCAGCTTCGAGGTCCACACCCTCGACTCCAGCGAGGCCGAGGCCCCCGTCATCTACGTGGACGGCTGGGCCGTACTGGGCAGCGTGGAGGCCCGCCCCAAGCGCGGCAAGGTCGTCGCCGACATCCTCGACCGGATGCACCGACGCGTCGAGAAGGGTTTGCGCAAGCACGTGTAGGACGGCACCGGCAGCGGTCGGGAACCCAGTGCATAGGCGCGCGTACAACGGGTAAGCCTTGACGCATCGTCTCTCGCTAGCGAAGCCGTCGTCAGGAGTAGACCCGTGCTGCAACCGCCGCATTCGTCCCTGCAGGTAGCTTATCGCCACTGGCT (double strand) [wblI promoter]
AGCCAGTGGCGATAAGGTCTCGTTCCGCGTCAACACCGAGACCGGCACGATCGACATCGGCGGGCACAACCTGACCGCCAGCAAGAAGTTCCGCAACGTCACCAAGCACGACCAGGTCGCCTTCGTCGTCGACGACCTGATCTCCACGCAGCCGTGGAACGTACGCGGTATCGAAGTGCGCGGCCGGGCCGAGGCGCTGACCGACGCGCAGCCGCCGCACCCCTACTTCGGTACCGCGATGATCCGTATCCACCCCAAGCGCATCATCACCTGGGGCCTCGGCGGCGACGCCGCCCAGCGCGGCCGCGACGTCTGACCCAGCACCCTTCGACTCCGCTTCGAGCGGACCTCGACGCCCTCTTGCCAAGGTGGAGCCCGTAGGACGGGTACACCACGGGGAGGGCGGCTGGATGAGTACCTTATCGCCACTGGCT (double strand) [actVA3 promoter]
AGCCAGTGGCGATAAGATCGGTAGTGCGGCAGGCGGCCTGCGCACTCCAGTCGGTTACCCAGCCCATACCGGCGCCGTCCTCTCCCGAATCGAGGCTCCCCCACGGCGGCAGCGGCATATTCACCGCCGCCAGTTGAGGACGTTACGGAAGGTGGGCACAGCGCAACACCCCCTTCGGGCCCAATCTTGAATGGCCCGAACGGACTATGGGTAAGCGGCAGATCACCCGGGGGAGTGAGCTGGCGACATGCGCGACGATCCCGACATTCAGGTCATCTCTGTTGCGTCACAACGGACACCGATTGACACACGAGGCGGATTCGGACACGTACCCCACACGCCGTGGCACGCGCCGGTACACACCAACGCGCCCCCCAGCGGGGCCCCTCGGAAAAAAATCGAGCGGATCCGGAACGATTCGGGGTCGCCGGACGTATTGATACGCTTATCGCCACTGGCT (double strand) [wblA promoter]

— PMC5373594
